Data as given in PubChem BioAssay AID1224830 (NIAID, 2016).
Assay: 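Genes whose knock-down alters the TNF-alpha reporter response to LPS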 (primary screen). Cell system: human THP-1 monocytic leukaemia cells, TNF dual-luciferase reporter clone, PMA-differentiated to macrophage-like cells. Reagent: siRNA pool against human genes, 50 nM. Time to read-out: LPS for 4 h, given about 3 days after siRNA transfection. Treatment: bacterial LPS (TLR4 ligand), 10 ng/ml. Read-out: 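Ratio of firefly to renilla light, scaled to the plate median and expressed as a robust z-score per replicate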. Scale: TNF reporter robust z-score: higher = stronger TNF reporter response to LPS. Call rule: 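a well is active when its z-score exceeds 2.8 or falls below -1.5; control wells carry no call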.
The whole screen tested about 18,000 reagents; below is an unselected part. About 2,900 of them (16%) were called active. 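Calls are made per well; low scores hint the gene aids the LPS response, high scores that it dampens it.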 Repeated entries: four replicate wells of each siRNA pool.

With CCDC186 (GeneID 55088), what does the deposit list?
TNF reporter robust z-score: 3.35; Call: active

What did the screen give for CCDC186 (GeneID 55088)?
TNF reporter robust z-score: 0.62; Call: inactive

What is on record for CCDC186 (GeneID 55088)?
TNF reporter robust z-score: 0.85; Call: inactive

What did the screen give for CCDC186 (GeneID 55088)?
TNF reporter robust z-score: 0.02; Call: inactive

How did the screen score PSMA3 (GeneID 5684)?
TNF reporter robust z-score: -1.16; Call: inactive

What is on record for PSMA3 (GeneID 5684)?
TNF reporter robust z-score: -1.06; Call: inactive

What is on record for PSMA3 (GeneID 5684)?
TNF reporter robust z-score: -1.56; Call: active

With PSMA3 (GeneID 5684), how do the results read?
TNF reporter robust z-score: -0.87; Call: inactive

Which result is listed for RAB9A (GeneID 9367)?
TNF reporter robust z-score: 0.44; Call: inactive

With RAB9A (GeneID 9367), what does the deposit list?
TNF reporter robust z-score: -1.22; Call: inactive

What did the screen give for RAB9A (GeneID 9367)?
TNF reporter robust z-score: -0.07; Call: inactive

For RAB9A (GeneID 9367), how do the results read?
TNF reporter robust z-score: 0.61; Call: inactive

What did the screen give for APMAP (GeneID 57136)?
TNF reporter robust z-score: -0.23; Call: inactive

With APMAP (GeneID 57136), what does the deposit list?
TNF reporter robust z-score: 0.48; Call: inactive

With APMAP (GeneID 57136), how do the results read?
TNF reporter robust z-score: -0.07; Call: inactive

Which result is listed for APMAP (GeneID 57136)?
TNF reporter robust z-score: 0.45; Call: inactive

How did the screen score CAPZA3 (GeneID 93661)?
TNF reporter robust z-score: -0.17; Call: inactive

With CAPZA3 (GeneID 93661), what was measured?
TNF reporter robust z-score: -0.34; Call: inactive

With CAPZA3 (GeneID 93661), what does the deposit list?
TNF reporter robust z-score: 0.02; Call: inactive

For CAPZA3 (GeneID 93661), what does the deposit list?
TNF reporter robust z-score: 0.31; Call: inactive

For FAR1 (GeneID 84188), how do the results read?
TNF reporter robust z-score: -0.92; Call: inactive

For FAR1 (GeneID 84188), what was measured?
TNF reporter robust z-score: -0.23; Call: inactive

With FAR1 (GeneID 84188), what was measured?
TNF reporter robust z-score: -0.74; Call: inactive

What is on record for FAR1 (GeneID 84188)?
TNF reporter robust z-score: -0.24; Call: inactive

For BRD7 (GeneID 29117), what does the deposit list?
TNF reporter robust z-score: 0.55; Call: inactive

For BRD7 (GeneID 29117), how do the results read?
TNF reporter robust z-score: -0.25; Call: inactive

For BRD7 (GeneID 29117), what does the deposit list?
TNF reporter robust z-score: 0.13; Call: inactive

With BRD7 (GeneID 29117), what was measured?
TNF reporter robust z-score: 0.47; Call: inactive

With ZSWIM7 (GeneID 125150), what was measured?
TNF reporter robust z-score: 0.65; Call: inactive

Which result is listed for ZSWIM7 (GeneID 125150)?
TNF reporter robust z-score: 1.84; Call: inactive

What is on record for ZSWIM7 (GeneID 125150)?
TNF reporter robust z-score: 0.66; Call: inactive

Which result is listed for ZSWIM7 (GeneID 125150)?
TNF reporter robust z-score: 0.24; Call: inactive

What did the screen give for KLHL32 (GeneID 114792)?
TNF reporter robust z-score: -0.39; Call: inactive

For KLHL32 (GeneID 114792), what does the deposit list?
TNF reporter robust z-score: -0.59; Call: inactive

With KLHL32 (GeneID 114792), what was measured?
TNF reporter robust z-score: 0.14; Call: inactive

For KLHL32 (GeneID 114792), how do the results read?
TNF reporter robust z-score: -0.26; Call: inactive

For NETO2 (GeneID 81831), what does the deposit list?
TNF reporter robust z-score: 0.17; Call: inactive

For NETO2 (GeneID 81831), what does the deposit list?
TNF reporter robust z-score: 0.33; Call: inactive

Which result is listed for NETO2 (GeneID 81831)?
TNF reporter robust z-score: 0.56; Call: inactive

With NETO2 (GeneID 81831), what does the deposit list?
TNF reporter robust z-score: 0.23; Call: inactive

What is on record for PHF5A (GeneID 84844)?
TNF reporter robust z-score: -2.05; Call: active

What is on record for PHF5A (GeneID 84844)?
TNF reporter robust z-score: -1.6; Call: active

Which result is listed for PHF5A (GeneID 84844)?
TNF reporter robust z-score: -1.89; Call: active

With PHF5A (GeneID 84844), what was measured?
TNF reporter robust z-score: -0.59; Call: inactive

What did the screen give for FOXP3 (GeneID 50943)?
TNF reporter robust z-score: 0.7; Call: inactive

For FOXP3 (GeneID 50943), what was measured?
TNF reporter robust z-score: 0.46; Call: inactive

What did the screen give for FOXP3 (GeneID 50943)?
TNF reporter robust z-score: 0.85; Call: inactive

With FOXP3 (GeneID 50943), what was measured?
TNF reporter robust z-score: 1.15; Call: inactive

Active calls (from the list above):
CCDC186 (GeneID 55088) — TNF reporter robust z-score = 3.35; Call = active
PSMA3 (GeneID 5684) — TNF reporter robust z-score = -1.56; Call = active
PHF5A (GeneID 84844) — TNF reporter robust z-score = -2.05; Call = active
PHF5A (GeneID 84844) — TNF reporter robust z-score = -1.6; Call = active
PHF5A (GeneID 84844) — TNF reporter robust z-score = -1.89; Call = active
